Experimental data published in the supplement of paper PMC10849652.
The list shows a part of the results.

Chains of the proteins cited; added tags and fusions are not shown. Lines headed by an entry give the natural chain unless they say otherwise; changes in a name come on top.
UniProt Q969V3: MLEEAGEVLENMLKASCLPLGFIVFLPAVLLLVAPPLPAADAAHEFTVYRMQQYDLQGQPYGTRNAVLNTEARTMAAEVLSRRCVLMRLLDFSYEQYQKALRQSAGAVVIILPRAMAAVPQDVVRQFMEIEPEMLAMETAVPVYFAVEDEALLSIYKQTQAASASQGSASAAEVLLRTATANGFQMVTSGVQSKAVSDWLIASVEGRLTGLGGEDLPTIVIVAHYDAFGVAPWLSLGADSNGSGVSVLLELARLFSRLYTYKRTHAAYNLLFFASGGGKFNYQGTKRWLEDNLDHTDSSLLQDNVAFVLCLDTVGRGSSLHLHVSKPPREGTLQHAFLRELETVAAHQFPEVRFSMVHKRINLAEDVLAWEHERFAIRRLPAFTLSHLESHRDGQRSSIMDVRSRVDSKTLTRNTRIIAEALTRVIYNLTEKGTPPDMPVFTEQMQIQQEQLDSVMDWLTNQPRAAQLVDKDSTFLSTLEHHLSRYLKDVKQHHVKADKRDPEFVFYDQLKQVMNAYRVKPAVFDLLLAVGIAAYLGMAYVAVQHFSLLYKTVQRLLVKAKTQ
UniProt Q9BTX1: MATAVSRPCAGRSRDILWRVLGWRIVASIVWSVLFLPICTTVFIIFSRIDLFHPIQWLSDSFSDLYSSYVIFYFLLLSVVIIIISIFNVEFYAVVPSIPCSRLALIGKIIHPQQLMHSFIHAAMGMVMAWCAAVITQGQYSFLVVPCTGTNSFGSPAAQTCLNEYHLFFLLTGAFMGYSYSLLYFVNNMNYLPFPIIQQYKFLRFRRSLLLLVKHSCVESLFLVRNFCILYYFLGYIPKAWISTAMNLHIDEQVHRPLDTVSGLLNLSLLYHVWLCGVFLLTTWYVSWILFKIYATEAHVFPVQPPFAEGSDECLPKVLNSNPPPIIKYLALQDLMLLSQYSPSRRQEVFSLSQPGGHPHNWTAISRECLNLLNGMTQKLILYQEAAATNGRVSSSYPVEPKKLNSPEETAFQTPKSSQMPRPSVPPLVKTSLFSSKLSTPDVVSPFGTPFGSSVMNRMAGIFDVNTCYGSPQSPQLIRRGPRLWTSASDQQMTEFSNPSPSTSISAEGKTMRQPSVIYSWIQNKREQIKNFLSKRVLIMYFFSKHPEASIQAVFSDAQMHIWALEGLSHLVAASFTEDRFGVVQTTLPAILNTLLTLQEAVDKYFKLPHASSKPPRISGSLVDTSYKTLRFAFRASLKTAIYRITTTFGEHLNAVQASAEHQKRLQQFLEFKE
UniProt Q6PIU2: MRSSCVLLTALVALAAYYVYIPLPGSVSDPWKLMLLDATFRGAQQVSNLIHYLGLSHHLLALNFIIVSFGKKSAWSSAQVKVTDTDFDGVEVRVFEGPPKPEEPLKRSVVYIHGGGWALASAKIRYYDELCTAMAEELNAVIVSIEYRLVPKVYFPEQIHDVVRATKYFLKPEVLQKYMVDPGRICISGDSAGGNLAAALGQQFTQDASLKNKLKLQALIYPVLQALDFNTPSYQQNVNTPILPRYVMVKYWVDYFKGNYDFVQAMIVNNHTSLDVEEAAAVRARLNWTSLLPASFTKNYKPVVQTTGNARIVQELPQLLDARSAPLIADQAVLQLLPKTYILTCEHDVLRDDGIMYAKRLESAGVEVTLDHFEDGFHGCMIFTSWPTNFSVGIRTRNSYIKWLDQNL
UniProt O75489, whole entry, looked up: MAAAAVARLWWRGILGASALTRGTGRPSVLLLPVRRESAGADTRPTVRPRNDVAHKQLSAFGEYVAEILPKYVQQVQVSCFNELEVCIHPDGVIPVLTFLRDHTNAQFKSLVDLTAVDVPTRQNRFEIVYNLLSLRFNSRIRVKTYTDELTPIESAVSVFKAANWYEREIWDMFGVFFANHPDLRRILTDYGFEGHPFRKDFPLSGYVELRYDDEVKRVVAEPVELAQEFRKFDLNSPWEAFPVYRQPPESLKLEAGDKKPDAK
UniProt P56181: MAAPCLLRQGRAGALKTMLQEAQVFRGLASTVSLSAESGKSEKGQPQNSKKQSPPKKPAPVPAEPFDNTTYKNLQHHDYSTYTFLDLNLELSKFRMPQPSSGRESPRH
UniProt Q86XI2: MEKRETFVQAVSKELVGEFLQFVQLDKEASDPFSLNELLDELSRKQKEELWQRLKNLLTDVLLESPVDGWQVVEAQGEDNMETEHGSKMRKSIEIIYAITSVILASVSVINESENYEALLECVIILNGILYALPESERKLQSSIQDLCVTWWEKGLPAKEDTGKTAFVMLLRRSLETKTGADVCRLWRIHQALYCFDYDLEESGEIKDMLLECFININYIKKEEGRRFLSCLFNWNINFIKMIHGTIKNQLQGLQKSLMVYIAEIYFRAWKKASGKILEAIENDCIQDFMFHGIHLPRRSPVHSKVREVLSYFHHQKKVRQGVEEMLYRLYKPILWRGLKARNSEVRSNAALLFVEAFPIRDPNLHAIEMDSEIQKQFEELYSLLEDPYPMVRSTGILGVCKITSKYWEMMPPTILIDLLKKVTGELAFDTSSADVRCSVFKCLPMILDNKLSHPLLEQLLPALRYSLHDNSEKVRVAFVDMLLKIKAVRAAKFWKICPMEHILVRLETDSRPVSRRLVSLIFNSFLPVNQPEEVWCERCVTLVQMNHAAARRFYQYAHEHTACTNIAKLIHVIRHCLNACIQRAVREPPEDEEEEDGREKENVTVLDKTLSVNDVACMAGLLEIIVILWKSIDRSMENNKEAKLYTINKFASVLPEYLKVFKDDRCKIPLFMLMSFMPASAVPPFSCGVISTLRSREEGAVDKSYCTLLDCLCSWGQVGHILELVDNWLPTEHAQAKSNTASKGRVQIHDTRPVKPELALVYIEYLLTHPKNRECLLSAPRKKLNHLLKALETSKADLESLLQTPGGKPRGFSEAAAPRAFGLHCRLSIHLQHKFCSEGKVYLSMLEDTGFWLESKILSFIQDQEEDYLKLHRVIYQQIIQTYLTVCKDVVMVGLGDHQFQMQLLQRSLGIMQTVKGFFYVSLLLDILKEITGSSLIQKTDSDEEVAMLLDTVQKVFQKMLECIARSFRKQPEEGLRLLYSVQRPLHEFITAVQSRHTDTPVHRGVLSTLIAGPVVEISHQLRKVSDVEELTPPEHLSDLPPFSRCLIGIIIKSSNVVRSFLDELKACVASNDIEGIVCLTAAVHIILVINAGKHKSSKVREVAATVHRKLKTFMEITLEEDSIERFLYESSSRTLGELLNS
UniProt Q9NXR1: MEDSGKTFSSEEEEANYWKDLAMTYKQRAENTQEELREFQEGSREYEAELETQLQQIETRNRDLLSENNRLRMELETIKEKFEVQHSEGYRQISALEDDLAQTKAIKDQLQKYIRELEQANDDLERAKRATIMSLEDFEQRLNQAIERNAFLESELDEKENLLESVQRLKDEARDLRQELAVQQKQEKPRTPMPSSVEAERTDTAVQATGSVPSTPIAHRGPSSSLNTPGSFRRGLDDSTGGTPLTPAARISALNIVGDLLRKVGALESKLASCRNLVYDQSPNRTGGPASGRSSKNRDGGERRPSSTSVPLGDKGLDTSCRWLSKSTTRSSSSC
UniProt O43674, whole entry, looked up: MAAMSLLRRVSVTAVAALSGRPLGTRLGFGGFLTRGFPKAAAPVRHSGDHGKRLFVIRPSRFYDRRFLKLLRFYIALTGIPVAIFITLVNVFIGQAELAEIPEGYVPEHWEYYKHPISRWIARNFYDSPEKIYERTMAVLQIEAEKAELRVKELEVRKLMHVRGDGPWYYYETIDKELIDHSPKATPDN
UniProt P54920: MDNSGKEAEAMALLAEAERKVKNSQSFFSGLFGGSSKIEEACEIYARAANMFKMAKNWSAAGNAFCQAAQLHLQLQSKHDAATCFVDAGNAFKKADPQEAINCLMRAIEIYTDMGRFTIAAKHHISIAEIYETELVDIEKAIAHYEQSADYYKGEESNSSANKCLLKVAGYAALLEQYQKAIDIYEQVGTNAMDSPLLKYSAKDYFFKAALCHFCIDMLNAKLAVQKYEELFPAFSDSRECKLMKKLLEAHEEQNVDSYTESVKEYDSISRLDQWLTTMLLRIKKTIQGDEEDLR
UniProt Q6IA69: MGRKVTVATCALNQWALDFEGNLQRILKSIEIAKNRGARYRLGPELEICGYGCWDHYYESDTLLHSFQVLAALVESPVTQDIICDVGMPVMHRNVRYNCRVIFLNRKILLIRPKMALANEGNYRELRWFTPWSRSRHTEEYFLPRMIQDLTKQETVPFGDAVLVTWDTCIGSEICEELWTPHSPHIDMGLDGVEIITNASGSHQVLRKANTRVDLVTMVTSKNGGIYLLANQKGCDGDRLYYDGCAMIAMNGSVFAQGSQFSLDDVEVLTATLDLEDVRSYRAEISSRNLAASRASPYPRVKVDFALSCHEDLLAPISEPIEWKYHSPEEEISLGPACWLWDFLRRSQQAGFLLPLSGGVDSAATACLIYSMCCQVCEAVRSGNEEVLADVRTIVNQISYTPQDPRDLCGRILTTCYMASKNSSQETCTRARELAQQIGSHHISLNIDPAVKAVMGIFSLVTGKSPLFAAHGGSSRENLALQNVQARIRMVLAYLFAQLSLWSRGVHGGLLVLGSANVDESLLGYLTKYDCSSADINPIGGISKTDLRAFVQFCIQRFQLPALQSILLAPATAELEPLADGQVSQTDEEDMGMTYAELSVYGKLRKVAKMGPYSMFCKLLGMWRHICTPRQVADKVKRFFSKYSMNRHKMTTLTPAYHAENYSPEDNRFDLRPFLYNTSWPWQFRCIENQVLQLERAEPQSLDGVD
UniProt Q9UBB6: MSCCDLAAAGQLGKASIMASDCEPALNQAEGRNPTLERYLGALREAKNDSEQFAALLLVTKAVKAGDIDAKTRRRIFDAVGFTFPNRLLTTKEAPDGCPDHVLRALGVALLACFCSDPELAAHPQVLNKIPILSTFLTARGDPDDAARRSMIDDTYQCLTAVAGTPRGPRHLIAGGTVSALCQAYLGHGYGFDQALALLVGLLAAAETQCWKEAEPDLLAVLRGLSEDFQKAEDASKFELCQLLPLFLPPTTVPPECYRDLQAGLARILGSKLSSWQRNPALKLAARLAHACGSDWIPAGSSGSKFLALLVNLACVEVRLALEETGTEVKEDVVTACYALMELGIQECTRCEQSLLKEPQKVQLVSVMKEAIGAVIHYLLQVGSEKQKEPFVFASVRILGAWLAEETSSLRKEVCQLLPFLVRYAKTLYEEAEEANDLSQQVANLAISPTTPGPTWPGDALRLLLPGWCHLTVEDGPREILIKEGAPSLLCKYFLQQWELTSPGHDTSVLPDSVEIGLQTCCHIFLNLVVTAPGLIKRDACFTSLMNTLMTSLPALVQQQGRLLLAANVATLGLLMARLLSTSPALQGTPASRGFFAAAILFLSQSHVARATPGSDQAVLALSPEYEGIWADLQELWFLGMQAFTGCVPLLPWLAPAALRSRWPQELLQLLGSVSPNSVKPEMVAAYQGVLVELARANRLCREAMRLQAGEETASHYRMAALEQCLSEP
UniProt Q96NT1: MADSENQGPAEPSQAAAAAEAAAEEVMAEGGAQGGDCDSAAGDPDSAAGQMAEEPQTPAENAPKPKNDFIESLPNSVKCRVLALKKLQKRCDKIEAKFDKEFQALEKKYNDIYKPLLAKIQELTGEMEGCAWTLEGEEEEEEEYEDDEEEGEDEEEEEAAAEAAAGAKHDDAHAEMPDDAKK
UniProt O75380, whole entry, looked up: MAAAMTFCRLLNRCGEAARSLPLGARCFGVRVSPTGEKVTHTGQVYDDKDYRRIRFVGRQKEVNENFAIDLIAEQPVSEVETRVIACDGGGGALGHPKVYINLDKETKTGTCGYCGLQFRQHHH
UniProt P51970, whole entry, looked up: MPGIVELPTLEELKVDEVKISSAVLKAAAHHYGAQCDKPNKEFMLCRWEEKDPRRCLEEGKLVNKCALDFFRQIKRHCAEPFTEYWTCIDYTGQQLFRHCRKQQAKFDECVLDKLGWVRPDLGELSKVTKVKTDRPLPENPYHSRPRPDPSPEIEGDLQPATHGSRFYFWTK
UniProt P17050: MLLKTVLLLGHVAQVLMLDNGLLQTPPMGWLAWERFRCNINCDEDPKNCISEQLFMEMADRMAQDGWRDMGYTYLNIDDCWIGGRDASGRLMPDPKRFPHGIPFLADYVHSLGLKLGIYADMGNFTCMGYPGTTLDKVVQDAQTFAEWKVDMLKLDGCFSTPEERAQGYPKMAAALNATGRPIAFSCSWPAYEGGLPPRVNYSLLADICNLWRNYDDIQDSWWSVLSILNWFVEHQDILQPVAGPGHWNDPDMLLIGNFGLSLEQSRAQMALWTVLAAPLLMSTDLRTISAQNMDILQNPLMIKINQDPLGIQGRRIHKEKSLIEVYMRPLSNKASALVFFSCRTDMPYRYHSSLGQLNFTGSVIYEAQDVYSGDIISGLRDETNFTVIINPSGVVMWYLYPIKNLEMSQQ

What was measured:
Experiment in all cases: log2 fold change, soluble protein after heating vs DMSO (PISA); higher = thermal stabilisation; K562 cells, 10 uM, 30 min; active = over 0.2 and 3.5 SD of the protein, either way, in both replicates (recomputed)
[1] = compound: CC1=C(C=C(C=C1)NC(=O)C2=CC(=CC=C2)C(C)(C)C#N)NC3=CC4=C(C=C3)N=CN(C4=O)C
Method in brief: (§1)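 Values are thermal stability changes relative to control samples and are taken from duplicates. They are stated as log2 fold changes. Before quantification by TMTpro 16plex LC-MS/MS with equalised channel sums, K562 cells at 2×10^6 cells/mL were treated with 10 μM compound for 30 min, heated in aliquots for 3 min across 48°C-58°C, pooled, extracted in PBS with 0.5% NP-40 at 4°C, and centrifuged at 21,000xg for 90 min to give the soluble supernatant.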

[2] = compound: CC1=C(C=C(C=C1)NC(=O)C2=CC(=CC=C2)N(C)C)NC(=O)C3=CC=C(C=C3)O
Method in brief: as §1

[3] = compound: CC1=CC=C(C=C1)SC2=C3C=C(SC3=CN=C2)C(=O)N
Method in brief: as §1

[4] = compound: CC1=NC(=CC=C1)C2=C(N=C(N2)C(C)(C)C)C3=CC4=NC=CN=C4C=C3
Method in brief: as §1

Nexturastat A = compound: CCCCN(Cc1ccc(C(=O)NO)cc1)C(=O)Nc1ccccc1 [Nexturastat A]
Method in brief: as §1

vemurafenib = compound: CCCS(=O)(=O)Nc1ccc(F)c(C(=O)c2c[nH]c3ncc(-c4ccc(Cl)cc4)cc23)c1F [vemurafenib]
Method in brief: as §1

[5] = compound: CCCS(=O)(=O)Nc1ccc(F)c(C(=O)c2c[nH]c3ncc(Cl)cc23)c1F
Method in brief: as §1

[6] = compound: CCCc1cc(C)[nH]c(=O)c1CNC(=O)c1cc(-c2ccnc(N3CCN(C)CC3)c2)cc2c1cnn2C(C)C
Method in brief: as §1

givinostat = compound: CCN(CC)Cc1ccc2cc(COC(=O)Nc3ccc(C(=O)NO)cc3)ccc2c1 [givinostat]
Method in brief: as §1

barasertib = compound: CCN(CCCOc1ccc2c(Nc3cc(CC(=O)Nc4cccc(F)c4)[nH]n3)ncnc2c1)CCOP(=O)(O)O [barasertib]
Method in brief: as §1

[7] = compound: CC[C@@H]1C(=O)N(C)c2cnc(Nc3ccc(C(=O)NC4CCN(C)CC4)cc3OC)nc2N1C1CCCC1
Method in brief: as §1

volasertib = compound: CC[C@@H]1C(=O)N(C)c2cnc(Nc3ccc(C(=O)N[C@H]4CC[C@H](N5CCN(CC6CC6)CC5)CC4)cc3OC)nc2N1C(C)C [volasertib]
Method in brief: as §1

[8] = compound: CC[C@H](C)N1C=C(C2=C(C=C(C=C21)C3=CN=C(C=C3)N4CCNCC4)C(=O)NCC5=C(C=C(NC5=O)C)C)C
Method in brief: as §1

epoxomicin = compound: CC[C@H](C)[C@@H](C(=O)N[C@@H]([C@@H](C)O)C(=O)N[C@@H](CC(C)C)C(=O)[C@]1(CO1)C)NC(=O)[C@H]([C@@H](C)CC)N(C)C(=O)C [epoxomicin]
Method in brief: as §1

[9] = compound: CCn1c(C(=O)N(C2CC2)C2CC2)cc2c3c(ncn3C)c(Nc3cc(C)n(C)n3)nc21
Method in brief: as §1

[10] = compound: CCn1cc(-c2ccnc3[nH]c(-c4cccc(CN(C)C)c4)cc23)c(-c2ccc(NC(=O)N(C)C)cc2)n1
Method in brief: as §1

[11] = compound: CN(C)CC(=O)Nc1ccc2[nH]c(=O)c3ccccc3c2c1
Method in brief: as §1

rosiglitazone = compound: CN(CCOC1=CC=C(C=C1)C[C@H]2C(=O)NC(=O)S2)C3=CC=CC=N3 (racemic) [rosiglitazone]
Method in brief: as §1

[12] = compound: CN1C2=C(C3=C1C(=O)N(N=C3)CC4=CC(=CC=C4)N)SC(=C2)S(=O)C
Method in brief: as §1

[13] = compound: CN1CCC(CNc2ccc3ncc(-c4cccc(OC(F)(F)F)c4)n3n2)CC1
Method in brief: as §1

Measured: log2 fold change

NCLN (UniProt Q969V3)
inactive: [1] 0.011 | [2] -0.011 | [3] -0.042 | [4] -0.015 | Nexturastat A -0.004 | vemurafenib -0.027 | [5] 0.005 | [6] 0.023 | givinostat 0.016 | barasertib 0.018 | [7] -0.007 | volasertib -0.059 | [8] -0.003 | epoxomicin -0.004 | [9] 0.032 | [10] 0.042 | [11] -0.003 | rosiglitazone 0.001 | [12] 0.035 | [13] 0.03

NDC1 (UniProt Q9BTX1)
inactive: [1] -0.035 | [2] -0.017 | [3] 0.011 | [4] -0.002 | Nexturastat A -0.005 | vemurafenib 0.009 | [5] 0.058 | [6] -0.04 | givinostat 0.014 | barasertib 0.028 | [7] -0.017 | volasertib -0.142 | [8] 0.028 | epoxomicin 0.025 | [9] -0.038 | [10] -0.054 | [11] 0.004 | rosiglitazone 0.031 | [12] -0.087 | [13] -0.045

NCEH1 isoform 2 (UniProt Q6PIU2)
inactive: [1] 0.002 | [2] 0.052 | [3] -0.043 | [4] 0.01 | Nexturastat A -0.086 | vemurafenib 0.008 | [5] -0.093 | [6] -0.004 | givinostat -0.058 | barasertib 0 | [7] 0.097 | volasertib 0.045 | [8] -0.028 | epoxomicin -0.045 | [9] 0.039 | [10] 0.042 | [11] 0.031 | rosiglitazone 0.004 | [12] -0.073 | [13] 0.055

NDUFS3 (UniProt O75489)
inactive: [1] 0.017 | [2] 0.022 | [3] -0.003 | [4] 0.005 | Nexturastat A -0.051 | vemurafenib 0.02 | [5] 0.009 | [6] 0.033 | givinostat -0.014 | barasertib -0.005 | [7] -0.02 | volasertib -0.001 | [8] -0.01 | epoxomicin 0.066 | [9] -0.005 | [10] -0.03 | [11] 0.016 | rosiglitazone 0.01 | [12] -0.08 | [13] -0.102

N4BP1 (UniProt O75113)
inactive: [1] -0.016 | [2] -0.01 | [3] -0.039 | [4] 0.042 | Nexturastat A -0.033 | vemurafenib 0.043 | [5] 0.037 | [6] 0.071 | givinostat -0.001 | barasertib 0.069 | [7] -0.072 | volasertib -0.177 | [8] 0.097 | epoxomicin -0.286 | [9] -0.022 | [10] -0.131 | [11] 0 | rosiglitazone 0.025 | [12] -0.02 | [13] -0.053

NDUFV3 isoform 2 (UniProt P56181)
inactive: [1] -0.054 | [2] 0.012 | [3] -0.037 | [4] -0.06 | Nexturastat A -0.024 | vemurafenib -0.039 | [5] -0.051 | [6] -0.014 | givinostat -0.025 | barasertib -0.048 | [7] 0.035 | volasertib 0.151 | [8] -0.062 | epoxomicin -0.013 | [9] 0.044 | [10] 0.017 | [11] -0.046 | rosiglitazone 0 | [12] -0.018 | [13] 0.043

NCAPG2 isoform 2 (UniProt Q86XI2)
inactive: [1] 0.083 | [2] -0.009 | [3] -0.061 | [4] 0.029 | Nexturastat A 0.239 | vemurafenib -0.037 | [5] 0.017 | [6] 0.025 | givinostat 0.108 | barasertib -0.007 | [7] -0.125 | volasertib -0.21 | [8] -0.038 | epoxomicin -0.018 | [9] -0.127 | [10] -0.218 | [11] -0.043 | rosiglitazone 0.074 | [12] 0.132 | [13] -0.145

NDE1 isoform 1 (UniProt Q9NXR1)
inactive: [1] -0.026 | [2] 0.036 | [3] -0.004 | [4] -0.029 | Nexturastat A -0.016 | vemurafenib -0.021 | [5] -0.02 | [6] -0.011 | givinostat -0.038 | barasertib 0.008 | [7] 0.075 | volasertib 0.036 | [8] -0.008 | epoxomicin 0.033 | [9] -0.053 | [10] 0.017 | [11] -0.013 | rosiglitazone 0.021 | [12] -0.031 | [13] 0.033

NDUFB5 (UniProt O43674)
inactive: [1] -0.011 | [2] 0.032 | [3] 0.022 | [4] 0.036 | Nexturastat A -0.039 | vemurafenib 0.04 | [5] 0.092 | [6] -0.016 | givinostat -0.072 | barasertib 0.029 | [7] -0.059 | volasertib -0.013 | [8] -0.039 | epoxomicin 0.008 | [9] -0.028 | [10] 0.026 | [11] 0.025 | rosiglitazone -0.037 | [12] -0.003 | [13] -0.123

NAPA (UniProt P54920)
inactive: [1] 0.062 | [2] -0.002 | [3] 0.006 | [4] 0.02 | Nexturastat A -0.085 | vemurafenib 0.063 | [5] 0.019 | [6] -0.043 | givinostat -0.016 | barasertib 0.002 | [7] -0.057 | volasertib -0.129 | [8] 0.013 | epoxomicin 0.053 | [9] -0.014 | [10] -0.061 | [11] 0.016 | rosiglitazone -0.001 | [12] -0.067 | [13] 0.007

NADSYN1 (UniProt Q6IA69)
inactive: [1] -0.05 | [2] -0.026 | [3] -0.028 | [4] -0.008 | Nexturastat A -0.064 | vemurafenib -0.026 | [5] 0.037 | [6] -0.032 | givinostat -0.044 | barasertib -0.044 | [7] 0.154 | volasertib 0.073 | [8] 0.008 | epoxomicin 0.005 | [9] 0.007 | [10] 0.012 | [11] -0.006 | rosiglitazone -0.025 | [12] -0.024 | [13] 0.042

NCDN isoform 3 (UniProt Q9UBB6)
inactive: [1] 0.009 | [2] 0.004 | [3] 0.031 | [4] 0.045 | Nexturastat A 0.046 | vemurafenib 0.048 | [5] -0.093 | [6] -0.094 | givinostat -0.037 | barasertib 0.086 | [7] -0.117 | volasertib -0.083 | [8] 0.169 | epoxomicin 0.009 | [9] -0.091 | [10] 0.034 | [11] 0.043 | rosiglitazone 0.059 | [12] 0.014 | [13] -0.114

NAP1L5 (UniProt Q96NT1)
inactive: [1] -0.05 | [2] 0.062 | [3] 0.062 | [4] 0.081 | Nexturastat A -0.006 | vemurafenib 0.099 | [5] -0.043 | [6] -0.027 | givinostat 0.017 | barasertib 0.044 | [7] 0.033 | volasertib 0.056 | [8] 0.005 | epoxomicin 0.109 | [9] -0.011 | [10] 0.034 | [11] -0.027 | rosiglitazone 0.017 | [12] 0.003 | [13] 0.101

NDUFS6 (UniProt O75380)
inactive: [1] 0.002 | [2] 0.021 | [3] -0.039 | [4] -0.109 | Nexturastat A -0.033 | vemurafenib -0.054 | [5] -0.038 | [6] -0.049 | givinostat -0.152 | barasertib -0.09 | [7] 0.09 | volasertib 0.182 | [8] -0.105 | epoxomicin -0.035 | [9] 0.101 | [10] 0.043 | [11] -0.046 | rosiglitazone -0.048 | [12] 0.067 | [13] -0.034

NDUFA8 (UniProt P51970)
inactive: [1] -0.008 | [2] 0.033 | [3] 0.158 | [4] 0.027 | Nexturastat A -0.04 | vemurafenib -0.015 | [5] -0.008 | [6] -0.08 | givinostat -0.05 | barasertib 0.022 | [7] 0.003 | volasertib -0.009 | [8] -0.002 | epoxomicin 0.031 | [9] 0.025 | [10] 0.001 | [11] -0.01 | rosiglitazone 0.001 | [12] 0 | [13] -0.09

Taken from the results shown (2 entries):
NCDN isoform 3 (UniProt Q9UBB6)
inactive: [1] 0.009 | [2] 0.004 | [3] 0.031 | [4] 0.045 | Nexturastat A 0.046 | vemurafenib 0.048 | [5] -0.093 | [6] -0.094 | givinostat -0.037 | barasertib 0.086 | [7] -0.117 | volasertib -0.083 | [8] 0.169 | epoxomicin 0.009 | [9] -0.091 | [10] 0.034 | [11] 0.043 | rosiglitazone 0.059 | [12] 0.014 | [13] -0.114

NAP1L5 (UniProt Q96NT1)
inactive: [1] -0.05 | [2] 0.062 | [3] 0.062 | [4] 0.081 | Nexturastat A -0.006 | vemurafenib 0.099 | [5] -0.043 | [6] -0.027 | givinostat 0.017 | barasertib 0.044 | [7] 0.033 | volasertib 0.056 | [8] 0.005 | epoxomicin 0.109 | [9] -0.011 | [10] 0.034 | [11] -0.027 | rosiglitazone 0.017 | [12] 0.003 | [13] 0.101

Following part:

NAGA (UniProt P17050)
inactive: [1] -0.055 | [2] -0.058 | [3] 0.072 | [4] -0.1 | Nexturastat A -0.029 | vemurafenib -0.055 | [5] -0.047 | [6] -0.004 | givinostat -0.036 | barasertib -0.014 | [7] -0.142 | volasertib -0.117 | [8] -0.041 | epoxomicin 0.043 | [9] -0.05 | [10] -0.071 | [11] -0.037 | rosiglitazone 0.014 | [12] -0.059 | [13] -0.232
